Construct, isoform or probe ends are uncertain for at least one entry. Weaker means in comparison with the reference protein, sequence or condition of that experiment. Tags and fusion partners may be left off the protein sequences shown.
Molecular target: T1, PhaR (Bradyrhizobium diazoefficiens USDA 110) (UniProt Q89XT0)
T1 sequence (looked up, limits assumed): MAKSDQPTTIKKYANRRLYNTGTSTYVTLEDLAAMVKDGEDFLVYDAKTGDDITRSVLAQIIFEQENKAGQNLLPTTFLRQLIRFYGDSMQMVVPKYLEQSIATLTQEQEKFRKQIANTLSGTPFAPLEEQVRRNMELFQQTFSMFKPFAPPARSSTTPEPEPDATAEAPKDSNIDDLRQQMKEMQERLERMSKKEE
Test: EMSA
Conditions: mIVT buffer: 40 mM Tris-HCl pH 7.0, 150 mM KCl, 0.1 mM EDTA, 0.1 mM DTT, 10 uL, 2 ng DNA, 0-2 uM PhaR, 30 min room temperature, 6% native PAGE 0.5X TBE, SYBR Gold, recombinant protein, protein details: untagged (C-terminal intein-CBD removed, IMPACT)

[1] = shift at >=1 uM PhaR, affinity lower than phaP1, probe letters rebuilt from the primers and the genome

Q: Does “GATCTAGTTTTTGTTAGACTAACAAGATTCTTGACTTTTTTGTTAGTTTAACTAATTGTGGGCAGAG / CTCTGCCCACAATTAGTTAAACTGACAAAAAAGTCAAGAATCTTGTTAGTCTAACAAAAACTAGATC [phaP1 67 bp, both boxes mutated (5155_5)]” bind (weak binding even at 2 uM PhaR)?
A: Result: binds more weakly

Q: Does “GATCTAGTTTTTGTTAGACTAACAAGATTCTTGACTTTTTTGTGCGTTGCACTAATTGTGGGCAGAG (double strand) [phaP1 67 bp, distal box mutated (5155_3)]” bind (shift needs >=1 uM PhaR)?
A: Result: binds more weakly

Q: Does “ATGTCTGGATTTGGGCTGTGCATCCGCTACATACTTCGGTTGAGGGCCGTCTCGTCAACTGGAAACGGACCGTTACAGAAAACGGTCTGTGCGGCCTTTTGCCCTTTTTCGGACCATCTTCGCAAGCACAGCTTTAAACCATGTTGCACTGCCAAGGAACACTCATGCGTTTGGCCCTTTACACCGGAATTATACTGGCTGGCGGTTACGCCTGCCTGACTCCTGCTCTCGCCGCCGACCCCACCGGCGACTGGCGGGTCGCCGACGGCGTCGCCAACATCCGTGTCGCCCAATGCAATGGCAGCATGTGGGGCGCGGTTTCCTGGGAAAAGCAGCCTGGCGGCCGTGACGAGAACAACCCGGATGTCTCGAAACAGAACAGGCCGACG (double strand) [blr3010 promoter PCR fragment]” bind [1]?
A: Result: binds

Q: Does “GCTGATGGAGGAGGTCGATCTCGTCATCCTCTGCCTGCCCGACGAGGCCGCCAAGGAGACGGTTGCGCTCATCGACAGCATGGGGCCGTCGGGCCCGAAGGTGCTGGACGCCTCGACCGCCTACCGGGGTTGCGCCCGACTGGGCCTACGGCTTTCCGGAACTGACGCCGGATCAGCCCGCCAAGATCAAGGCCGCGAAGAAGGTCTCCAATCCCGGCTGCTATCCGACCGGCGCGATCGCGCTCTTGCGGCCGATCGTCGATGCCGGGCTGTTGCCATCAGACTATCCCGTCACGGTGAAC (double strand) [blr4358 promoter PCR fragment]” bind [1]?
A: Result: binds

Q: Does “GGCAGCTCTTGTCGGATTTACGACATTGCGGCGGCAATCGGACATACACATGCGGAATTCGGAGCGCGCGGATCCATGGCTGAAAACCAACACCGTGAGTGCTCGTCTACGCCGACGTCGTCTTGATGAACCTTCAGTATGCACCTGCGTTGCTCCAAAAAGGCGAGACGCCGGCGGCCGCCCCGCAAGAGATGCTTCGCATTTTTGAGACCATTACCTCCGAGCATGATGTCGGGTTGTTCCGCCGTTTCGAAATTATGCGCTACCGGCATGTCAAGCGCGGTATCCCGATTCGGACGTGACAGTTGTCGAGGATCGAGTGTTGGGCCCATATGCCTTCTCGATCTGGTCCAGCGACTGAGCGATCAGGAAACTCTTGATGCCGTAGCC (double strand) [blr2131 promoter PCR fragment]” bind [1]?
A: Result: binds

Q: Does “AACGTGACATGCAACCTCAACAGCGCCGATCCGTCAGCGTGATCGCCGCCACATCCGACCCCTTTGACGGGATCGTTCGGCTCGTCCTCGACGCGGCGCGGTTCGGCTTCGGCCTCGACCAGGTCGCGATGACGACCTGCCCCGGTGGCGGCCGGACGATACGGATGGTCCTTGAAGTCCAGCCGTCGGCCGATTGCGCTGACATCGCGGAACGGCTGTCGCGCCATCCGGCGATCACGGACCTTCGCGTCGTGGGGCTCGCGCGCGGGGAATCCGGTCGGCCAGGCGTTGTCTCTGCAGAACCGGCAAACGAGCGGATGCTTCCATGAACAGCCCCACGCCACTTCGCTTTCACGTTC (double strand) [blr6331 promoter PCR fragment]” bind [1]?
A: Result: binds

Q: Does “GCCCGGACGAAGTAGAGACGGCTCCCGGCCGGCGGCCACAATCCCGCCGAAAGGCCATTGACGGACGCAAGACTCTCCCCCATAAGTCGCCGCCATGTTCACGACCACCAAACGCACGACCAAAACCACCACGGCCTTCGGGGCCCGGGGAGGCGTGCGCGCGTAGTCGTCGACTGAAACGCATCAGCTCTACCGAAGCCCCGCCCTCGATGGTCCGGGGCTTTTTTGTTGTCTAAAGCTCACAGCATGATCCGGAAAAGTGGAATCCGGTTTTCCGACGAGATCATGCTCAACTTGAATGGAGGAGAATGTGAGTAACGATCCCGTCGT (double strand) [blr4687 promoter PCR fragment]” bind [1]?
A: Result: binds

Q: Does “CTCATCGACAGCGCGATTGCGGCTGCGGATTGGGGGGCGGAGGACGCCGAAGAAGCTGCGCATCCGACCTGACCGATGCACGCTCGGCGGGCATCTCGCGAAGCGCCCGCTTGACAAGCCCTGCCCTTCGGCTGTAGGGACGCGGCCCATGATCAATTCTCGGACCAACCGCCGCGCAGCTTTCCGTCGTCGCACCCGCGACGATGATGGGTTGCGCCATGTCCGACGACGCCGCTGAAGCACTGAATTCAGCCAGTTTTCGAGAAGGCCGCACCCGCAAAGTGCGGCCTTCTTGCTTTTTGCGTCCATTTTCCACCCGCCCCTCGATAGGAGTTCGACATGACCACCGCCACCCATCCGTATGATGCGCTGATGGATATCAC (double strand) [blr4582 promoter PCR fragment]” bind [1]?
A: Result: binds

Q: Does “GAACCTGAGCCGCTATTCTGGCTAAGGTGATGTTCTCAAACGGCTTTTGGCCGCTTGCGGAAGCTGAACACGTCCAGGGAATCAAGGTAGGGGTCCGCGGTTTCCAAAAGCTTAAGGAACCCTTGCGGGAAACCCCGGGAATCTCTTCGGTTTGGATCTAGTTTTTGTGCGACGCACAAGATTCTTGACTTTTTTGTGCGTTGCACTAATTGTGGGCAGAGTCAGGGAGCCGGGGCTTCCCGACGCGAGCCAGGGAAAAGGATTCCGAAATGTTCAAGGTTGAAGACTTTCAGAGCTACGGGAAAGAGCAGTTCG (double strand) [phaP1 promoter PCR fragment]” bind (shift at 0.5 uM PhaR, probe letters rebuilt from the primers and the genome)?
A: Result: binds

Q: Does “GATCTAGTTTTTGTGCGACGCACAAGATTCTTGACTTTTTTGTTAGTTTAACTAATTGTGGGCAGAG / CTCTGCCCACAATTAGTTAAACTGACAAAAAAGTCAAGAATCTTGTGCGTCGCACAAAAACTAGATC [phaP1 67 bp, proximal box mutated (5155_4)]” bind (shift needs >=1 uM PhaR)?
A: Result: binds more weakly

Q: Does “CAGGGCGAGAGGTATTTTGGGAGGGGGGCATTTGCGCGCTCCAGATATGTAGTGTTCACTACAGATGTGGAGCTGGATACCGCAGCGCAAGATACTTATGTACCGTTTGCTAAGAAAATTGTAGCCACTTACCGCAAGCATTGGAAGGCGGAAGAGAAAATAAAGCTAGAACAAATAGATAGGATTTGACGTTAAGCTTCACGCAGAACGTGAATTCCGAGGAGACAGGCACATGGGCATGGGACGCCCCCGGGAATTCGACGCCGAAACGGCGTTGGACCAAGCGATGGAAGTGTTCTGGCGCCACGGCTATGAGGGCGCCACCATCGCGCAGCTCACCGAAGCCATGGGCATCAATCCGCCCAGCCTCTAC (double strand) [bll3872 promoter PCR fragment]” bind [1]?
A: Result: binds

— paper PMC10888616, “Pleiotropic Effects of PhaR Regulator in Bradyrhizobium diazoefficiens Microaerobic Metabolism”
